From PubChem BioAssay AID2685 (National Center for Advancing Translational Sciences (NCATS), 2010) come the findings set out here.

This experiment in a line: qHTS Assay for Lipid Storage Modulators in Drosophila S3 Cells.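 On cell number change: cells counted by Cell Tracker Red CMTPX staining in the red channel.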 The note with it: BODIPY lipid droplet fluorescence, 18-24 h; for cell number change: measured here: cell count max response, cells fed with added oleic acid. The method in brief: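 Drosophila S3 cells got compounds at several concentrations plus oleic acid (400 uM solution). Laser-scanning cytometry with 488 nm excitation read lipid droplets at 500-530 nm and cells at 575-640 nm. Percent activity was relative to 20 uM Triacsin C.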
(In general: Quantitative high-throughput screening tests each substance at several concentrations.)

[1] abbreviates: measured here: lipid fluorescence (Fed channel) AC50, cells fed with added oleic acid.
Setting [2] is: measured here: cell number channel AC50, cells fed with added oleic acid.

Some of the results follow. Shown are side measurements of this screen, not its main read-out; they come without a call. Most of these compounds were active or inconclusive in the main read-out, so they are no random draw. Words in brackets tell the shape of the fitted curve; partial curves, single points and poor fits give uncertain potencies.

The term AC50 denotes the concentration giving half of the maximal activity seen. Low values mean greater potency, high ones weaker potency. In the case of `COC(=O)c1ccc(C(=O)OC)c(NC(=S)N2CCOCC2)c1`, under setting [1], the concentration at half-maximal activity (AC50) is 29.1 µM [falling, single point]. Turning to `CCCCNC(=O)CCNS(=O)(=O)c1ccc(C)cc1`, the cell number change worked out at 17.7%. Besides, the AC50 under setting [1] is 0.0291 µM [falling, full curve, poor fit]. `Cc1cccc(C(=O)NCCCNC(=O)c2ccccn2)c1`: the cell number change amounted to 1.28%. In addition, the AC50 under setting [1] is 5.17 µM [falling, single point]. Regarding `COc1cc(C(=O)NCCC(=O)NC2CCCCC2)cc(OC)c1OC`, the cell number change is 47.9%. In addition, under setting [2], the concentration at half-maximal activity (AC50) was 29.1 µM [rising, single point]. Regarding `CN(C)/C=N/c1nc2nccc(-c3ccc(Cl)cc3)n2n1`, the cell number change is -66.1%. For the same molecule, the AC50 under setting [2] is 11.6 µM [falling, partial curve, poor fit]. Further, the AC50 under setting [1] was 29.1 µM [falling, single point].

On to `Cc1ccc(NC(=O)C2CC2C)c(Cl)c1` (configuration not stated), for which the AC50 under setting [1] is 2.06 µM [falling, partial curve].

As for `COCCNC(=O)CC(NS(=O)(=O)c1ccc(C)cc1)c1ccco1` (configuration not stated), the cell number change is -26.2%. The AC50 under setting [1] was 0.92 µM [falling, partial curve]. As to `CCOc1cc(C2C(C(=O)OC(C)C)=C(C)N=C3SCCC(=O)N32)ccc1OC(C)=O` (configuration not stated), under setting [2], the AC50 was 1.84 µM [rising, partial curve, poor fit]. Take `CCOC(=O)[C@H]1[C@H]2COc3ccc(Cl)cc3[C@@H]2N2C(=O)CN(Cc3ccc(OC)cc3)C(=O)[C@@]12C`: the cell number change was -10.8%. Also, the concentration at half-maximal activity (AC50) under setting [1] was 18.4 µM [falling, single point]. With `C=CCNc1nc2ccccc2nc1NS(=O)(=O)c1cccs1`, the cell number change turned out to be 33.3%. The AC50 under setting [2] is 1.46 µM [rising, full curve]. For the same molecule, the AC50 under setting [1] is 0.58 µM [rising, single point]. Consider `CCn1cc([N+](=O)[O-])c(C(=O)N2CCCC2)n1`, for which the AC50 under setting [1] is 20.6 µM [falling, partial curve]. As to `CCn1nc(C)c(NS(=O)(=O)c2ccccc2)c1C`, the AC50 under setting [2] is 6.51 µM [falling, single point] and the AC50 under setting [1] is 5.8 µM [falling, single point]. For the molecule `COc1ccccc1OCc1ccc(C(=O)N/N=C/c2ccco2)cc1`, the AC50 under setting [1] is 2.91 µM [rising, single point]. For `Cc1ccc(NC(=O)C2CCN(S(=O)(=O)c3ccccc3)CC2)cc1`, the cell number change is -23.8%. In addition, under setting [1], the AC50 was 8.2 µM [falling, partial curve]. On to `CCCCC(=O)Nc1nn(C)c2nc3c(C)cccc3cc12`, for which the cell number change was -27.4%. Moreover, the AC50 under setting [1] was 10.3 µM [falling, partial curve]. Turning to `O=C(CCc1ccccc1)NNc1ccc(F)cc1`, the cell number change was -2.91%. Also, the AC50 under setting [2] is 6.51 µM [falling, single point]. Moreover, the AC50 under setting [1] was 6.51 µM [falling, single point]. Regarding `CCCn1cnc2cc(NCc3ccccn3)ccc21`, the cell number change is 16.1%. In the case of `S=C(NCc1ccccn1)Nc1ccccc1Cl`, the cell number change is -12%. Also, the AC50 under setting [1] is 29.1 µM [rising, single point].

As to `Brc1cccc(-c2nnc3n2CCC3)c1`, the AC50 under setting [2] is 0.0731 µM [rising, partial curve] and the AC50 under setting [1] is 0.00517 µM [rising, full curve, poor fit]. In the case of `CCCN1CC(O)=C(C#N)C1=O`, the cell number change was -21.9%. For the same molecule, the AC50 under setting [1] was 4.61 µM [falling, full curve]. For the molecule `Cc1cccc(NC(=S)NCc2ccco2)c1C`, the AC50 by setting is: under setting [2], 6.51 µM [rising, single point]; under setting [1], 6.51 µM [rising, partial curve].

In the case of `COC(=O)C1(C)Nc2ccccc2C(=O)N1c1ccccc1C` (configuration not stated), the cell number change was -22.1%. Besides, under setting [1], the AC50 is 6.51 µM [falling, single point]. Regarding `CCOC(=O)CSc1nc(N)c(C#N)c(-c2cccs2)c1C#N`, the cell number change was -18.5%. Further, under setting [1], the AC50 is 0.731 µM [falling, full curve, poor fit]. `O=C(c1ccc2c(c1)N(Cc1ccccc1)C(=O)CS2)N1CCOCC1`: the AC50 under setting [1] was 4.11 µM [falling, partial curve].

In the case of `COc1ccc(/C(O)=C2/C(=O)C(=O)N(CCCN(C)C)C2c2ccccc2)cc1Cl` (configuration not stated), the AC50 under setting [1] is 0.206 µM [falling, full curve].

As to `CSc1nnc(SCC2=NNC(=O)SC2)s1`, the cell number change is -14.4%. Under setting [1], the AC50 is 32.6 µM [falling, single point].

For the molecule `Cc1cc(NS(=O)(=O)c2ccc(NC(=S)NC(=O)c3ccncc3)cc2)no1`, the cell number change worked out at 5.34%. Further, the half-maximal activity concentration (AC50) under setting [2] is 0.461 µM [rising, partial curve]. On to `Cc1cc(NC(=O)CN2CCCC2c2nc3ccccc3s2)no1` (configuration not stated), for which the cell number change was -32.4%. Also, the AC50 under setting [2] was 0.00517 µM [falling, full curve, poor fit]. For the molecule `CCOC(=O)N1CCC(NC(=O)c2cc(C(=O)Nc3ccc(OC)c(OC)c3)ccc2CO)CC1`, the cell number change was -30%. Besides, the AC50 under setting [1] is 2.59 µM [falling, full curve, poor fit]. For the molecule `COc1cc(NC(=O)C2CC(c3ccccc3O)=NO2)c(OC)cc1Cl` (configuration not stated), the cell number change is -32.8%. For the same molecule, under setting [2], the AC50 is 16.4 µM [falling, partial curve, poor fit]. In addition, under setting [1], the AC50 is 5.17 µM [falling, full curve]. For the molecule `CCN(CC)S(=O)(=O)c1cc(NS(=O)(=O)c2cccc(Cl)c2)ccc1C`, the AC50 under setting [1] is 6.51 µM [falling, partial curve, poor fit]. For `COc1ccc(-c2nc3c(Br)c(N)c(Br)cc3o2)cc1`, the cell number change is -35.8%. In addition, under setting [2], the AC50 was 23.1 µM [falling, single point]. Moreover, the AC50 under setting [1] is 23.1 µM [falling, single point]. Consider `CN(CC(=O)Nc1ccccc1Br)CC(=O)NC(c1ccccc1)c1ccccc1`, for which the cell number change stood at 29.8%. Moreover, the AC50 under setting [1] is 2.91 µM [rising, partial curve]. Consider `CC(C)(C)c1ccc(OCC(=O)N2CCN(c3ncccn3)CC2)cc1`, for which the cell number change is 16.5%. Further, under setting [2], the AC50 is 0.00461 µM [rising, full curve, poor fit]. `O=C(NCC(=O)N(c1ccc(F)cc1)C(C(=O)NC1CCCCC1)c1ccncc1)c1ccco1` (configuration not stated): the cell number change came out at 9.24%. As for `Cc1cc(CSc2ccccc2)ccc1NC(=O)c1ccc(Br)cc1`, the cell number change was 1.11%. For the same molecule, under setting [1], the AC50 was 5.17 µM [rising, full curve, poor fit].

As for `COc1ccc(C(=O)N(C)Cc2ccc(C)o2)cc1OC1CCN(C(C)=O)CC1`, the cell number change is -3.47%. In addition, the AC50 under setting [1] was 29.1 µM [falling, single point]. Turning to `CSc1ccc(CCNC(=O)CS(=O)(=O)Cc2nc(-c3ccccc3F)oc2C)cc1`, the cell number change was 21.8%. The concentration at half-maximal activity (AC50) under setting [1] is 18.4 µM [falling, single point]. As to `O=C1C(Cl)=C(NCCc2ccccc2)C(=O)N1CCc1ccccc1`, the cell number change is 55.5%. Further, the AC50 under setting [2] is 0.092 µM [rising, full curve, poor fit]. Moreover, the AC50 under setting [1] was 0.517 µM [rising, full curve]. Regarding `COC(=O)C1=C(C)N(C(C)c2ccccc2)C(=O)/C1=C\c1ccco1` (configuration not stated), the AC50 under setting [2] was 6.51 µM [rising, partial curve, poor fit]. As for `Cc1ccc(NC(=O)COC(=O)CNC(=O)c2ccc3ccccc3c2)c([N+](=O)[O-])c1`, the cell number change came out at 16.8%. As for `Cc1ccc(OCC(=O)N/N=C/c2cn[nH]c2-c2ccc(Cl)c(Cl)c2)cc1`, the cell number change was -29.7%. Moreover, the half-maximal activity concentration (AC50) under setting [1] is 20.6 µM [falling, partial curve].

As to `CCn1nnnc1SCC(=O)c1cc(OC)ccc1OC`, the cell number change is 0.291%. Besides, the AC50 under setting [1] was 1.3 µM [rising, full curve]. For `O=C(OCC(=O)c1c[nH]c2ccccc12)c1cc2ccccc2cc1O`, the cell number change was -4.6%. The AC50 under setting [2] is 0.231 µM [falling, full curve, poor fit]. Moreover, the half-maximal activity concentration (AC50) under setting [1] was 6.51 µM [rising, single point]. For the molecule `Cc1oc(CSCC2CCCO2)cc1C(=O)O` (configuration not stated), the cell number change amounted to 9.59%. On the same count and under the same terms, the value for `COCCCN1C(=O)c2ccccc2C1C(=O)NC1CCCCCC1` (configuration not stated) was 16.1%; that for `COc1ccc(C(=O)Nc2nnc(-c3ccc(F)cc3)s2)c(OC)c1` was 12.5%. In the case of `COCCCNC(=O)c1ccc(N(C)S(C)(=O)=O)cc1`, the cell number change was -6.54%. Further, the AC50 under setting [1] is 20.6 µM [falling, single point].

Take `CCCCN(CCCC)CP(=O)(c1ccccc1)c1ccccc1`: the cell number change was found to be 92.5%. Further, the AC50 under setting [2] was 18.4 µM [rising, partial curve].

Turning to `O=c1oc2ccccc2nc1/C=C(O)/C=C\c1ccccc1`, the cell number change was -66.3%. The AC50 under setting [2] was 32.6 µM [falling, partial curve, poor fit]. Also, under setting [1], the AC50 was 0.092 µM [falling, full curve, poor fit]. On to `CCC(CC)C(=O)OCC(=O)Nc1cc(OC)c([N+](=O)[O-])cc1C`, for which the cell number change is -0.148%. Moreover, the concentration at half-maximal activity (AC50) under setting [2] is 6.51 µM [rising, single point]. With `CC1(C)CC(=O)C(C=NCCCN2CCCC2=O)=C(O)C1`, the cell number change is -7.18%. As for `S=c1[nH]nc(-c2ccc(Br)cc2)n1Cc1ccccc1`, the cell number change is -36.5%. Also, the AC50 under setting [2] was 29.1 µM [falling, single point]. The AC50 under setting [1] is 20.6 µM [falling, single point]. Turning to `CCCNC(=S)NC1CC2CCC(C1)N2Cc1ccccc1` (configuration not stated), the cell number change came out at 3.17%.

For the molecule `CC(C)CCN(C(=O)c1ccc(Br)cc1)c1c(N)n(Cc2ccccc2)c(=O)[nH]c1=O`, the cell number change was -2.61%. Besides, under setting [1], the AC50 was 29.1 µM [rising, single point]. For the molecule `COc1ccc(S(=O)(=O)n2cnc3cc(C)c(C)cc32)cc1C`, the AC50 is, setting by setting: under setting [2], 0.411 µM [rising, full curve]; under setting [1], 0.82 µM [rising, partial curve].

As for `CCN1CCN(c2nc(S(=O)(=O)c3ccc(C)cc3)c(Cl)s2)CC1`, the AC50 under setting [1] is 13 µM [rising, partial curve, poor fit].

For the molecule `CN(C(=O)COC(=O)Cc1c(Cl)cccc1Cl)c1c(N)n(Cc2ccccc2)c(=O)[nH]c1=O`, the cell number change was found to be 6.21%. Further, under setting [2], the AC50 was 0.0291 µM [rising, full curve, poor fit]. As to `CN(C)C(=O)c1c(C(F)(F)F)nn(C)c1Cl`, the cell number change is -38.6%. The AC50 under setting [2] was 20.6 µM [falling, single point]. Besides, the AC50 under setting [1] is 0.58 µM [falling, single point].

Turning to `COc1ccc(/C(=N/Nc2ncnc3ccccc23)C(=O)O)cc1`, the cell number change worked out at 6.35%. For the same molecule, the AC50 under setting [1] is 29.1 µM [rising, single point].
